{"sequences": {"note": "Chains of the proteins cited; added tags and fusions are not shown. Residues count along the entry.", "UniProt P16056, residues 1298-1379": "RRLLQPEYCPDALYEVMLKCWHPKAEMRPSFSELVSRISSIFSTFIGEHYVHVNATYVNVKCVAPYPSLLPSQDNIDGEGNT"}, "source": "patent US20050113284A1", "about": "“Drug for regenerating tissue and vessel and method therefor” (priority 2001, published 2005)", "target": "mouse HGF receptor (yeast two-hybrid constructs) (mouse) (UniProt P16056)", "experiment": "yeast two-hybrid", "note": "These are yes or no findings as the source states them, for the method shown. Some binding calls cover weakened binding; strength is not graded here."}
{"binder": "mouse MERMUC (yeast two-hybrid constructs) (protein) TAALFTSEILTLPPPTEAKPIFPETTSLSGILSTAGTPALATTLEGTVSTSAITESETAVAQTLTSVGTSVTVRRNPLENTSTLSIETQSHTEVLGTITVPMVAGSTMGETASFVSFTALDSSSLSVVVTTESSATSETLTTGNTTNSSFLTESHPPFSIYSTTASTSKNPNITLTKTTASPKPPTHPTTSASTAWIRKTTKHDPGEDGGFLLVRLTVASPKDLTEHNAREKLMNQLRRELHARMPLVHMSFLSIRRG", "values": [{"measurement": "binding", "result": "binds"}]}
